Results: the supplement of paper PMC3334620
The full ranking holds about 33,000 sequences; the median of “E-score (-0.5 to 0.5)” is about -0.0014, and the highest 2% start at about 0.25. The list shows a part of the results.

The sequences below were run against T1, Cad1 (UniProt P24813) (assay: PBM E-score (8-mer binding enrichment) (E-score (-0.5 to 0.5)); higher = stronger / more preferred TF binding). Settings: protein concentration: 100 nM; construct: GST-full length.
T1 sequence: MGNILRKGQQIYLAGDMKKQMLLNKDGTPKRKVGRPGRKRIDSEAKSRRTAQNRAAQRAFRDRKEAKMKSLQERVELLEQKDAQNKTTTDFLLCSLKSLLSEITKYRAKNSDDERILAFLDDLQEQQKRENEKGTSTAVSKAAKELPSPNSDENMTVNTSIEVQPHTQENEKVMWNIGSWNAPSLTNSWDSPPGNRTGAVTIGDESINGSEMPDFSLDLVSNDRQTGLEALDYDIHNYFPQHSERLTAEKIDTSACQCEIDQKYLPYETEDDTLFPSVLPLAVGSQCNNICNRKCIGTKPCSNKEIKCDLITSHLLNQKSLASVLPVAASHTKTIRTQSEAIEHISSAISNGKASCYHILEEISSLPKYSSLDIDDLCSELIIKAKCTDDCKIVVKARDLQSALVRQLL
In short: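 For each ungapped eight-base word taken together with its reverse complement, the Universal PBM Analysis Suite assigned an E-score. Binding data came from GST-tagged yeast transcription factors, applied at about 100-200 nM, on universal all-10-mer Agilent arrays made double-stranded by primer extension. Fluorescent anti-GST marked bound protein, and scans were normalised with masliner.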

Sequence	PBM E-score
GCGTGTCC	-0.061
ACACATGT	0.173
CATTCAGA	0.107
ATCCGCTA	0.113
ACCTGGGC	-0.403
GGTTGAAC	0.094
CATTAACG	0.156
AAGAATCA	0.0916
ATATCACG	0.0337
CGCATAAA	0.0998
ATTAAGAC	0.0457
CCTGATTC	0.0985
TGTACACA	0.256
ACCCCGGA	-0.145
GCACTCAA	-0.0879
ATCCGCTG	-0.0415
AACTTCCG	-0.0611
GAAAGAGA	-0.0583
ACCGTCCC	-0.13
CTTCTAGA	-0.106
ACTTTAAT	0.138
ATGCAGTA	-0.0106

Sequence	PBM E-score
AACAGAAT	-0.0253
ACGGAGCG	-0.00118
GTATTCAA	0.14
AAGCACCT	0.0701
GCATAAAA	0.119
CCGGGTGA	-0.0555
AAGTGCGT	-0.0193
CTCGGCAG	0.136
CACCTGCG	0.0286
ATATTGGC	0.0348
ACTCGTGA	-0.128
CGTCCCGC	0.13
AACGTTCG	0.0404
ATGTGAGC	-0.107
TCAGGTCA	-0.0909
AAGATAGC	0.0234
AAGCTTTG	0.0825
GACAGTCA	-0.11
TAGTTTCA	0.222
GTAAATAA	0.11
ATATGCCG	0.187
AGTAGCTC	-0.102

Sequence	PBM E-score
ACTGGACT	0.0311
GGAACTCC	0.052
TACATGAA	-0.0238
CACCTCGG	-0.0993
CACAGACG	0.0172
AGGACATA	0.134
GTCCTGTA	0.0962
GACATAAA	0.227
GTATCCTA	-0.035
CTAAATCA	0.067
AGAAATAG	0.0428
GATACACA	0.0908
CATTTTGG	-0.0199
ACACTGCT	-0.0404
CTCTCCGA	-0.15
GTACCCGA	-0.173
TGCCAGAA	0.00548
GAGAAGAA	-0.0317
ACTGAGAG	-0.0789
AGCGATTG	0.0693
GGGTCTGA	-0.115
CCTACATA	-0.1

Some values from above:
PBM E-score, GAGAAGAA is entered as -0.0317
PBM E-score, GGGTCTGA is entered as -0.115
PBM E-score, TGCCAGAA is entered as 0.00548
PBM E-score, GTATCCTA is entered as -0.035

Following part:

Sequence	PBM E-score
AGTCGAAA	-0.116
AGGTTCTG	0.0895
GTGGCATA	-0.127
ACTTCTAA	-0.143
GCCCGTCC	-0.166
TACTTGCA	0.0513
ACGGTACG	-0.0103
CACATACA	-0.0123
ATTTTGGG	0.054
CAAACTTA	0.0865
CTAAACCC	-0.0485
AACTACCA	-0.0966
GGTCGTCA	-0.0613
CACCACGG	-0.291
AAGCTTAA	0.174
GCTCTGCA	-0.185
CCAGTTTC	-0.155
TTCTCAAA	0.0876
CCACGGAG	0.0348
AAGCTAAG	-0.253
